Laboratory results: paper PMC12827483
No constants are given. Whether binding was seen depends on the method and setting. Binding seen in cells or lysates may run through a third protein. Here binding means that the protein was enriched with, or labelled near, the bait; the list need not be complete.

Amino acid sequences for entries named in this document (tags omitted).
UniProt Q8IX90: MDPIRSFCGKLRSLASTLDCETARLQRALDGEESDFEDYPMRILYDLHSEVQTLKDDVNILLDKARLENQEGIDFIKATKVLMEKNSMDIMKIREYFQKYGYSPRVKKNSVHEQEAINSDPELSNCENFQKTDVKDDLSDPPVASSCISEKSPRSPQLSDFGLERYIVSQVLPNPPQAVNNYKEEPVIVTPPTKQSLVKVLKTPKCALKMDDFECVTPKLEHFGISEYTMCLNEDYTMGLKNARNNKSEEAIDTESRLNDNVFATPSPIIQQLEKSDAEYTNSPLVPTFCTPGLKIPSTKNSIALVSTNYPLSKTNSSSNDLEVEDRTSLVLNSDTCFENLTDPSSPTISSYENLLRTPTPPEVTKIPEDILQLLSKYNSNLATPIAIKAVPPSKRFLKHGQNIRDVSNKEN
UniProt Q9GZT9: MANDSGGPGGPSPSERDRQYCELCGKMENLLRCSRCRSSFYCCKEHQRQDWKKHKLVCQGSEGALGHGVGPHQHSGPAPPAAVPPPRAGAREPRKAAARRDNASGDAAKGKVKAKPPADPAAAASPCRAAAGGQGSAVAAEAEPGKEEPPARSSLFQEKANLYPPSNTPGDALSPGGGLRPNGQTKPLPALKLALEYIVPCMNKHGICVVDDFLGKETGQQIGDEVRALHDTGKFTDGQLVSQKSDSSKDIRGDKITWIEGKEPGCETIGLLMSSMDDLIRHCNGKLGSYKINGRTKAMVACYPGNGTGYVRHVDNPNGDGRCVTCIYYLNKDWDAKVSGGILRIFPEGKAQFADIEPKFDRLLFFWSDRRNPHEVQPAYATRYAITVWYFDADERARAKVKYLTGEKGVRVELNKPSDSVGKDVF

Target: Spindle and Kinetochore Associated Protein 3 (SKA3) (human (endogenous in A549)) (UniProt Q8IX90)
Assay: affinity purification with mass spectrometry; IP with SKA3 antibody from total lysate of A549 cells, IgG antibody as negative control; silver-stained PAGE gel and mass spectrometry

With “Prolyl Hydroxylase Domain-containing protein 2 (PHD2) (from UniProt Q9GZT9 1-426) (enzyme)” the binding was “binds”.
